In paper doi:10.1101/2020.06.08.140590:
No constants are given. Whether binding was seen depends on the method and setting. Binding seen in cells or lysates may run through a third protein. Here binding means that the protein was enriched with, or labelled near, the bait; the list need not be complete.

Amino acid sequences for entries named in this document (tags omitted).
UniProt Q9UKV8: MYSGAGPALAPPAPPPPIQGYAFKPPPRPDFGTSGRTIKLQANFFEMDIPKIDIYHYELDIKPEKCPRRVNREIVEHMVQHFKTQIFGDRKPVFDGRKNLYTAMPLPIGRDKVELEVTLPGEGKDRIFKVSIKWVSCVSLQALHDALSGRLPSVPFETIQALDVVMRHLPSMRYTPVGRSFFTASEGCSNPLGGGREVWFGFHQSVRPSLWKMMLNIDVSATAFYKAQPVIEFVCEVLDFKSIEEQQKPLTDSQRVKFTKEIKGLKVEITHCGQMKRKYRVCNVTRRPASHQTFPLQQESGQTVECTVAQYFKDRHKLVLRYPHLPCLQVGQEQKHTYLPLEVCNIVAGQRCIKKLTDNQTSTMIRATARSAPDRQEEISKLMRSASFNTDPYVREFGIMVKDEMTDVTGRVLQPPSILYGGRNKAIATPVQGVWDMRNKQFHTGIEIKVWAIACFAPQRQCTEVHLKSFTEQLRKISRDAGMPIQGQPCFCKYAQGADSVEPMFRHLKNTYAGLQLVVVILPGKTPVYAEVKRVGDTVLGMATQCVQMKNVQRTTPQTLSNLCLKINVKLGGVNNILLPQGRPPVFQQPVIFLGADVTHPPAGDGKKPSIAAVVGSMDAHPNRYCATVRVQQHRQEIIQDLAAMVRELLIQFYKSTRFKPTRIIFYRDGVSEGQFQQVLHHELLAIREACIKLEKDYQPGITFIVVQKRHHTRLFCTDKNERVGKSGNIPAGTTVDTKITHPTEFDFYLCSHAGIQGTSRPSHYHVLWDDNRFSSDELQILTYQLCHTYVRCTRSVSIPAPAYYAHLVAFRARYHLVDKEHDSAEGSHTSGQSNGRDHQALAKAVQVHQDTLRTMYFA

How the values were obtained:
[1] = biological target: HA-Ago1 (FLAG/HA-tagged Argonaute 1) (human) (UniProt Q9UL18); assay: affinity purification with mass spectrometry
[2] = biological target: HA-Ago2 (FLAG/HA-tagged Argonaute 2) (human) (UniProt Q9UKV8); assay: affinity purification with mass spectrometry

With “HSC70, endogenous (from UniProt P11142 1-646)” the binding [1] was “binds” and the binding [2] was “binds”.

In the case of “HSPA1A (heat shock 70KDa protein 1A), endogenous (from UniProt P0DMV8 1-641)”, the binding [1] is reported as “binds” and the binding [2] is reported as “binds”.
